These results are taken from patent US6635437B2, “Compounds, compositions and methods for generating chemiluminescence with phosphatase enzymes” (Lumigen, Inc., priority 1996, dated 2003).

Structures are written as SMILES.

The data set concerns alkaline phosphatase (AP). Briefly: Chemiluminescent detection of alkaline phosphatase with acridan phosphate and cationic aromatic compound (CAC). The note with it: Na2SO3 in Reagent A; 4×10^−16 mol AP. The class given is biochemical.

On to `O=S([O-])[O-].[Na+].[Na+]` [Na2SO3, sodium sulfite], for which the “concentration giving the maximum S/B” value is reported as 1.0 mg/mL and the “concentration giving the maximum signal” value was determined as 1.0 µg/mL.
